# Measurements: the supplement of paper PMC12819154, “High-throughput peptide-centric local stability assay extends protein–ligand identification to membrane proteins, tissues and bacteria” (Nature Structural & Molecular Biology, 2025)
# Protein sequences, listed by entry. Tags and fused reporters are not part of them. Lines headed by an entry give the natural chain unless they say otherwise; changes in a name come on top.
# UniProt Q8WXG6, whole entry, looked up: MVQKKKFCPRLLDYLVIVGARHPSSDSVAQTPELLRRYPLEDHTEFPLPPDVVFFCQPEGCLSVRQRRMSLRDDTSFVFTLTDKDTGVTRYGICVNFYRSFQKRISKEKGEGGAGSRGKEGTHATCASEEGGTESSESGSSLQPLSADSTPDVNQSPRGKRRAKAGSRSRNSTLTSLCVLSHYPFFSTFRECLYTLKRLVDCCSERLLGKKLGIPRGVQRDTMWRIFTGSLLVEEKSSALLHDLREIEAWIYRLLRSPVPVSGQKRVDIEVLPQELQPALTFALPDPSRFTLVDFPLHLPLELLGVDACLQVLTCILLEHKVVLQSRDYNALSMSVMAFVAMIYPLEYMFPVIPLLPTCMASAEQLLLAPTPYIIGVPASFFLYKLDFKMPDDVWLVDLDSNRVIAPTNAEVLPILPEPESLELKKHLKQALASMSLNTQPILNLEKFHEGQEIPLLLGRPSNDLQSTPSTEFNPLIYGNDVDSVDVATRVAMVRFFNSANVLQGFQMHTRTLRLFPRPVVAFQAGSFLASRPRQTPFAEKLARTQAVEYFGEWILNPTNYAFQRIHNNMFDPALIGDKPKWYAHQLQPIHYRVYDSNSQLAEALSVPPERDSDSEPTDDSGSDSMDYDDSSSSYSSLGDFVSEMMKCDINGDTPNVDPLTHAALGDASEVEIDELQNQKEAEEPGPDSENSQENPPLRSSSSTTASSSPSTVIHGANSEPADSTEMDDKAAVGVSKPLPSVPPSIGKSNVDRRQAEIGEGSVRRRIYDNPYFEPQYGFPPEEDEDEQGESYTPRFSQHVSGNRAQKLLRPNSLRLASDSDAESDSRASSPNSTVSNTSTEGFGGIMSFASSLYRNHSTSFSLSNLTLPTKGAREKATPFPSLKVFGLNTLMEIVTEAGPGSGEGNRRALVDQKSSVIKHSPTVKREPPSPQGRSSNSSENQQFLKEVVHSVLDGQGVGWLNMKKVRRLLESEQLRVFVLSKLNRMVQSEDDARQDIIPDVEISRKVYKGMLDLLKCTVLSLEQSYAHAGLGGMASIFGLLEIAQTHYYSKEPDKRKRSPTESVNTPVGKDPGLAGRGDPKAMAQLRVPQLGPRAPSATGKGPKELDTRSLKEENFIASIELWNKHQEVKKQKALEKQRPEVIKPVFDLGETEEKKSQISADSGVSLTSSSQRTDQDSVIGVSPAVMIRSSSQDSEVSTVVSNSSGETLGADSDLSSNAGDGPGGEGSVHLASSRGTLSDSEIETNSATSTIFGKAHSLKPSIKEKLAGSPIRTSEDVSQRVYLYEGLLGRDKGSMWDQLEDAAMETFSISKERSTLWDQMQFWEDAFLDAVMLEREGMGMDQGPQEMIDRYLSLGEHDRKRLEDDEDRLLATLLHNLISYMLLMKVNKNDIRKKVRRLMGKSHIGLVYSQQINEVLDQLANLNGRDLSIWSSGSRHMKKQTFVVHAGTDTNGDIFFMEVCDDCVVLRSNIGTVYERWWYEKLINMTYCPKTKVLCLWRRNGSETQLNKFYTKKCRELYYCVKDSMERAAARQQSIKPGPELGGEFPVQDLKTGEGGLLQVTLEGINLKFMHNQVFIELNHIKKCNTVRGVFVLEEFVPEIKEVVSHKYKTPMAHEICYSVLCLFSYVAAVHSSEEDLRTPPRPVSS
# UniProt Q92615, whole entry: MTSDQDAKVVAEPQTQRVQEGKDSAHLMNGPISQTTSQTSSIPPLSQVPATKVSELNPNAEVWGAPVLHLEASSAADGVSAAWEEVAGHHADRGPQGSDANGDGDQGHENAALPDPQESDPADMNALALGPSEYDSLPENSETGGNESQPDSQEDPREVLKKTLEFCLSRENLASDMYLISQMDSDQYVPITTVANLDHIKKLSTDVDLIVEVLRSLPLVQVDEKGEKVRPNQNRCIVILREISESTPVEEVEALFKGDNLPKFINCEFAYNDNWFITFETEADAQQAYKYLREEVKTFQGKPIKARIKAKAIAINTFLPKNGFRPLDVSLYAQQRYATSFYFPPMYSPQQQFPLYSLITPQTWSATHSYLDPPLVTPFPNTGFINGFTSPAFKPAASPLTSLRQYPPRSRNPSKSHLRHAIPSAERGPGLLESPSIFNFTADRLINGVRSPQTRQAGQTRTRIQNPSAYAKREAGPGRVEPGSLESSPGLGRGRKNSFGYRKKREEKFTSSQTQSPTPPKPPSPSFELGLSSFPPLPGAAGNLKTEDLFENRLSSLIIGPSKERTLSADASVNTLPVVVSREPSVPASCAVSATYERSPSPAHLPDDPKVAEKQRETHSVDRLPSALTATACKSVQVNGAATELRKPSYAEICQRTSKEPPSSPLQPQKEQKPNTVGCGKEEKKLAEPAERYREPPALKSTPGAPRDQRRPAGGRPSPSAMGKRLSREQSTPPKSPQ
# UniProt Q8WXX5: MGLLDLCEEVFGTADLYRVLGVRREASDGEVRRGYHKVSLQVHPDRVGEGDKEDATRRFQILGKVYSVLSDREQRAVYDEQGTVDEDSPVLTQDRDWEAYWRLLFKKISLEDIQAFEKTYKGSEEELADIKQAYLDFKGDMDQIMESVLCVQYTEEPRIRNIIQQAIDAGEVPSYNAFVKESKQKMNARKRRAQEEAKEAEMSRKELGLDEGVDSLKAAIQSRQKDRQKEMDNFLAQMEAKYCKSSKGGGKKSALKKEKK
# UniProt Q8WZA0: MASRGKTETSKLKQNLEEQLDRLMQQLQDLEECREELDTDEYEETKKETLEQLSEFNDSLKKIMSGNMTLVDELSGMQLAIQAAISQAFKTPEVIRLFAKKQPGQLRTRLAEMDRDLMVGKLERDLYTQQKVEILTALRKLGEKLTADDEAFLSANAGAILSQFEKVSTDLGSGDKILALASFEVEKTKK
# UniProt Q8TBZ8: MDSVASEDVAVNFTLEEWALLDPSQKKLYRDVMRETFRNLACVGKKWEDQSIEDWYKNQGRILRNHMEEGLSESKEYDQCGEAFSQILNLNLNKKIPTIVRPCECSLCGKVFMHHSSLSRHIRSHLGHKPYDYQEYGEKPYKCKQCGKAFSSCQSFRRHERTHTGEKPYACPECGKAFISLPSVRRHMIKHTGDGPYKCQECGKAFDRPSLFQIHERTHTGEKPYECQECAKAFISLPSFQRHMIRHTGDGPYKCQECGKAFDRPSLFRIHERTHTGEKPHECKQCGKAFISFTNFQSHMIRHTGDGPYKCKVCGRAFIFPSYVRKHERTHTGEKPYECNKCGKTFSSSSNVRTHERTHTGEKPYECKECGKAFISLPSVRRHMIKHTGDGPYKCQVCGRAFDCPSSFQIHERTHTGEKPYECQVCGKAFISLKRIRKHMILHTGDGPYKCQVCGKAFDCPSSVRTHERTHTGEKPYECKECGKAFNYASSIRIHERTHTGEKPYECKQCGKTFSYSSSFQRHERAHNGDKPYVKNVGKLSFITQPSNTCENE
# UniProt Q8WV07: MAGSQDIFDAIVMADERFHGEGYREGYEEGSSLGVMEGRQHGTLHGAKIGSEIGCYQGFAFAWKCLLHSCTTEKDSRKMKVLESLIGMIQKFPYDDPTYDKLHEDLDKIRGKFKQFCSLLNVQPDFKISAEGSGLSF
# UniProt Q8TAA5: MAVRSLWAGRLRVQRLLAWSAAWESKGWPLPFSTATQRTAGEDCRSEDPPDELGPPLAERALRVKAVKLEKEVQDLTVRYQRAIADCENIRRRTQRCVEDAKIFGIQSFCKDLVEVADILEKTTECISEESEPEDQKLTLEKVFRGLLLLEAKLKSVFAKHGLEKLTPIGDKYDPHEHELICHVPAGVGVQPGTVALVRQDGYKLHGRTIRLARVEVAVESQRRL
# UniProt Q92614: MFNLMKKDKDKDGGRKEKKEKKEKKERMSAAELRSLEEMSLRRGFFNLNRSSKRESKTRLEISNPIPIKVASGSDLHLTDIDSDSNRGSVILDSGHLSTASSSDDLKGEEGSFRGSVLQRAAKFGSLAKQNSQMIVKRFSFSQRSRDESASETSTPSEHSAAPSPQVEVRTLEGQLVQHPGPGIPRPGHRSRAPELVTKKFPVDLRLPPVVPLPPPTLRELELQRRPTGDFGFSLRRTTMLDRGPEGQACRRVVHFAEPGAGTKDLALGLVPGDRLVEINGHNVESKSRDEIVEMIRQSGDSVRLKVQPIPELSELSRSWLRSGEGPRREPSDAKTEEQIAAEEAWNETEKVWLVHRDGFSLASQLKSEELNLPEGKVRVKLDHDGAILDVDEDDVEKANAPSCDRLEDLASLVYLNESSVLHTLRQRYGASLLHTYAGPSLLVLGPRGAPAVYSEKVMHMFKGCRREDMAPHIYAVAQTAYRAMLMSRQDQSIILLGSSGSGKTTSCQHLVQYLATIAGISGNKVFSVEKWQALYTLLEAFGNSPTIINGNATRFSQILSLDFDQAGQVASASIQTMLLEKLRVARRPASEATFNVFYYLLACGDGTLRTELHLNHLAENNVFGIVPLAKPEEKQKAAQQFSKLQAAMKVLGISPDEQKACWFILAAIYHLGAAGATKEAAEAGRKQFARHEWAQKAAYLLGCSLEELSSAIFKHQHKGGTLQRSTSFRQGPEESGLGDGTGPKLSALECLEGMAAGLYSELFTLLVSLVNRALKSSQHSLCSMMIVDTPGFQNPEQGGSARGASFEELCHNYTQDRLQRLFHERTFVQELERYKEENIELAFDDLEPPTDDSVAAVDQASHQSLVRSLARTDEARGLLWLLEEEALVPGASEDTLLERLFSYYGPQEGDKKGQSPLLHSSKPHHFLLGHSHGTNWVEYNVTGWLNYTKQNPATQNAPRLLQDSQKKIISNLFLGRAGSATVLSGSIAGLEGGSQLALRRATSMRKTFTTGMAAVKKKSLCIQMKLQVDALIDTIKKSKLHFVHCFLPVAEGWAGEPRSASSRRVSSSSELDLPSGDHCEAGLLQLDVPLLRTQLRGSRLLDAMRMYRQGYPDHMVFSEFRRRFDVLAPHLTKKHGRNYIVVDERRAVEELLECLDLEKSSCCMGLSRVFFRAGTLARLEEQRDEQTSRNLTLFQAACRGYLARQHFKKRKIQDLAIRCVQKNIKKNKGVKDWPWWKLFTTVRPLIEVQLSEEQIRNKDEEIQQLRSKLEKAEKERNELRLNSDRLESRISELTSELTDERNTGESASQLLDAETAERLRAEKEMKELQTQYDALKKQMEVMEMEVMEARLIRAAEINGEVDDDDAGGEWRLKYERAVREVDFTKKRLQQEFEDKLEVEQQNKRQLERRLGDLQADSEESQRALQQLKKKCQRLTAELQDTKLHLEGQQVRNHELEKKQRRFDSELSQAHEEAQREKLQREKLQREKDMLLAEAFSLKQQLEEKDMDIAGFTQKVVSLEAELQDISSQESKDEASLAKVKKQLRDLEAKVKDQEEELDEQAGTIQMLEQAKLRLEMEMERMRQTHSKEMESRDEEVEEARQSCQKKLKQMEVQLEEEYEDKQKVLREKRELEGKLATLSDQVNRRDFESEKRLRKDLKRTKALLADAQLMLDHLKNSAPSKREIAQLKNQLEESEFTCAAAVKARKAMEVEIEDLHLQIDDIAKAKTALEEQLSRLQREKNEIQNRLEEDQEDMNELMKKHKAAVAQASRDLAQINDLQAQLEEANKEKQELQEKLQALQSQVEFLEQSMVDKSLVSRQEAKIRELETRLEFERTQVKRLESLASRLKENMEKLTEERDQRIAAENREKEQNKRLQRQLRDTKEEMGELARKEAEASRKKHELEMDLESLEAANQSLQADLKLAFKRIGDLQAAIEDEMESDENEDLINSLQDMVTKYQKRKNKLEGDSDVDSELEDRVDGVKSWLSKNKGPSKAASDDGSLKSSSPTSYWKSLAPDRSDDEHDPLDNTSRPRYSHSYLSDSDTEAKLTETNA
# UniProt Q8TAT5: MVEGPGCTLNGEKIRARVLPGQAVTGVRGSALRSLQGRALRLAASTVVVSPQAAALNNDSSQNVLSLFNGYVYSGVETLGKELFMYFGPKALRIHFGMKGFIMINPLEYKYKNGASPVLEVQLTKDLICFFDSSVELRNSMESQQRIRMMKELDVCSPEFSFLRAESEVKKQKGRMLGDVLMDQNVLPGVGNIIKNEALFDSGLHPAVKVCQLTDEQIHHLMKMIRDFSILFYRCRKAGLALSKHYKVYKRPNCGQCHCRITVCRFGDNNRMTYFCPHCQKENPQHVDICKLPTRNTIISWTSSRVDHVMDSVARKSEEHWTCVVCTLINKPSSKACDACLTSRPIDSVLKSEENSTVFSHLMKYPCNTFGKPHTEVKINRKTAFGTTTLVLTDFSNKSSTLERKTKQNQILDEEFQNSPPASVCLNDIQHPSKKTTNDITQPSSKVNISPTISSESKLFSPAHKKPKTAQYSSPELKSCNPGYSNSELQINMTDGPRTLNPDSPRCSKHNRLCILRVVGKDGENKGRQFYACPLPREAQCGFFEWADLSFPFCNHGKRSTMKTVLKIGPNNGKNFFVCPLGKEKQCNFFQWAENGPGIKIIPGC
# The other results are listed elsewhere or left out. Small differences around the control level are noise.
# Compound: Cc1nc(Nc2ncc(C(=O)Nc3c(C)cccc3Cl)s2)cc(N2CCN(CCO)CC2)n1 [dasatinib]
# Assay: log2 fold change of tryptic peptide abundance, ligand vs vehicle (limited proteolysis) (log2 ratio); higher = more trypsin-susceptible (destabilized)
# Conditions: ligand concentration: 5 uM; sample: K562 cleared lysate
row,Target,log2 fold change
1,"CTNNBL1 (peptide sequence: KIEGEKHDMVR, peptide start residue: 458) (UniProt Q8WYA6)",0.237
2,"PANK1 (peptide sequence: GPVGGSDAAPQR, peptide start residue: 186) (UniProt Q8TE04)",0.0605
3,"MADD (peptide sequence: MVQSEDDAR, peptide start residue: 986) (UniProt Q8WXG6)",0.481
4,"CHD5 (peptide sequence: ESLAGNKPANAVLHK, peptide start residue: 1849) (UniProt Q8TDI0)",0.0194
5,"UniProt Q92567 (peptide sequence: TYQASSAAFR, peptide start residue: 93)",-0.0325
6,"RNF138 (peptide sequence: TTACQHVFCR, peptide start residue: 31) (UniProt Q8WVD3)",0.354
7,"UniProt Q92615 (peptide sequence: EPPSSPLQPQK, peptide start residue: 660)",-0.289
8,"UniProt Q8WYQ9 (peptide sequence: LLSSSVHSLLSLEER, peptide start residue: 525)",0.525
9,"UniProt Q8TD08 (peptide sequence: LCDFGLAR, peptide start residue: 153)",0.0898
10,"ANKRD49 (peptide sequence: DEDEYTPLHR, peptide start residue: 105) (UniProt Q8WVL7)",0.208
11,"DNAJC9 (peptide sequence: EMDNFLAQMEAKYCK, peptide start residue: 230) (UniProt Q8WXX5)",0.219
12,"DOCK2 (peptide sequence: VAVPIEDMQR, peptide start residue: 495) (UniProt Q92608)",0.59
13,"WASF1 (peptide sequence: SVLLEAIRK, peptide start residue: 499) (UniProt Q92558)",0.106
14,"DUSP19 (peptide sequence: KIIETWK, peptide start residue: 30) (UniProt Q8WTR2)",-0.0282
15,"SMCR8 (peptide sequence: SIIEHQDLLK, peptide start residue: 242) (UniProt Q8TEV9)",-0.319
16,"LZIC (peptide sequence: QNLEEQLDR, peptide start residue: 14) (UniProt Q8WZA0)",0.113
17,"UniProt Q8TBX8 (peptide sequence: NPPSESEGSDGR, peptide start residue: 129)",-0.853
18,"UniProt Q8TBZ8 (peptide sequence: AFISLPSFQR, peptide start residue: 233)",0.441
19,"DCAKD (peptide sequence: QVILLHTELER, peptide start residue: 188) (UniProt Q8WVC6)",-0.257
20,"UniProt Q8TE49 (peptide sequence: RPIVVVADTMLR, peptide start residue: 308)",0.0157
21,"UniProt Q8WV07 (peptide sequence: FHGEGYR, peptide start residue: 18)",0.14
22,"GRPEL2 (peptide sequence: LEKEVQDLTVR, peptide start residue: 69) (UniProt Q8TAA5)",-0.08
23,"CCHCR1 (peptide sequence: AQELEHSDSVK, peptide start residue: 350) (UniProt Q8TD31)",-0.331
24,"MYO18A (peptide sequence: SLEEMSLRR, peptide start residue: 35) (UniProt Q92614)",-0.499
25,"UniProt Q8TF32 (peptide sequence: YGVYPLKEASGCPGAER, peptide start residue: 6)",-0.512
26,"UniProt Q8TBZ6 (peptide sequence: NELDSPHEEK, peptide start residue: 314)",0.258
27,"UniProt Q8TAT5 (peptide sequence: TTNDITQPSSK, peptide start residue: 436)",0.291

# 2 entries picked at random from the list so far:
row,Target,log2 fold change
6,"RNF138 (peptide sequence: TTACQHVFCR, peptide start residue: 31) (UniProt Q8WVD3)",0.354
7,"UniProt Q92615 (peptide sequence: EPPSSPLQPQK, peptide start residue: 660)",-0.289
